In the supplement of paper PMC12819154, “High-throughput peptide-centric local stability assay extends protein–ligand identification to membrane proteins, tissues and bacteria” (Nature Structural & Molecular Biology, 2025):
Some of the results follow. Most entries show no effect beyond the scatter of the controls.

The chains behind the UniProt entries cited, without tags or fusion partners. Where a name states a change or a piece, a line headed by the entry shows the natural chain unless it says otherwise.
UniProt P27830: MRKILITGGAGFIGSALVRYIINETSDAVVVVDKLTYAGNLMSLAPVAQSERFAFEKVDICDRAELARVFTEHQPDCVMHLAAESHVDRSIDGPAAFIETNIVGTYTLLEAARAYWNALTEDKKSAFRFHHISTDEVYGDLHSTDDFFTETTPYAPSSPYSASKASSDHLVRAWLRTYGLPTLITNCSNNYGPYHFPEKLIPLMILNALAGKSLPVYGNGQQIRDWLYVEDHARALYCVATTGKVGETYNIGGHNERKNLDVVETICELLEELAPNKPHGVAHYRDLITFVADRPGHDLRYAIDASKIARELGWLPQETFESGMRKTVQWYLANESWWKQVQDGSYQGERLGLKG
UniProt P31665: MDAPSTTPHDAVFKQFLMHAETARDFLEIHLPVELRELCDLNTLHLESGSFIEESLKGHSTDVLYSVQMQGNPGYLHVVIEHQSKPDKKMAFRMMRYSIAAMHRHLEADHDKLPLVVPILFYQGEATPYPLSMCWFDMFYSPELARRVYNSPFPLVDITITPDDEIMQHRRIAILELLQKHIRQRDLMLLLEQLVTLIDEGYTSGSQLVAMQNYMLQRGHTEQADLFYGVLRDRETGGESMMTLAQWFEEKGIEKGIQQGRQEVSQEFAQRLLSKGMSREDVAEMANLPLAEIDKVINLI
UniProt P29131: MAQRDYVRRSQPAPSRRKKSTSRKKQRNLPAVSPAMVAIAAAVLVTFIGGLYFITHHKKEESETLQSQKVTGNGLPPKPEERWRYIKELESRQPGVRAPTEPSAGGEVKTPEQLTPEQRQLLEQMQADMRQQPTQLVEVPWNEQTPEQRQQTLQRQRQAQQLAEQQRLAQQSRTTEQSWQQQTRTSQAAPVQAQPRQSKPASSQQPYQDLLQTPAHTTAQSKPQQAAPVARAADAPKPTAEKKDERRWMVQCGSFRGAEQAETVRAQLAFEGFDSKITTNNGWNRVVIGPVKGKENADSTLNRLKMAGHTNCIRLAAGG
UniProt P32162: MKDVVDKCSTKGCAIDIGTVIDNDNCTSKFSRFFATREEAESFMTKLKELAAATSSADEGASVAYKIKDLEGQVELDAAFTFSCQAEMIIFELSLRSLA
UniProt P25534: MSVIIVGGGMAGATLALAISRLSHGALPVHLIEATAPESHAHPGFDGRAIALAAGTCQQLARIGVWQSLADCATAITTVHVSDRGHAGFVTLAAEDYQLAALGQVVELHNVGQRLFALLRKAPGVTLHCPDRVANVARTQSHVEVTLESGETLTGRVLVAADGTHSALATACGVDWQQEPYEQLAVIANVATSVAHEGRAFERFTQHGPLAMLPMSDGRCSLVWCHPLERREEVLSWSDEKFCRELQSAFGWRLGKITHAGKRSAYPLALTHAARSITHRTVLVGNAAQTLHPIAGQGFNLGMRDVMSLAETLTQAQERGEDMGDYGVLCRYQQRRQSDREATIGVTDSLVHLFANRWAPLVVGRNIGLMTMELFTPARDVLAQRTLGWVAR
UniProt P24554: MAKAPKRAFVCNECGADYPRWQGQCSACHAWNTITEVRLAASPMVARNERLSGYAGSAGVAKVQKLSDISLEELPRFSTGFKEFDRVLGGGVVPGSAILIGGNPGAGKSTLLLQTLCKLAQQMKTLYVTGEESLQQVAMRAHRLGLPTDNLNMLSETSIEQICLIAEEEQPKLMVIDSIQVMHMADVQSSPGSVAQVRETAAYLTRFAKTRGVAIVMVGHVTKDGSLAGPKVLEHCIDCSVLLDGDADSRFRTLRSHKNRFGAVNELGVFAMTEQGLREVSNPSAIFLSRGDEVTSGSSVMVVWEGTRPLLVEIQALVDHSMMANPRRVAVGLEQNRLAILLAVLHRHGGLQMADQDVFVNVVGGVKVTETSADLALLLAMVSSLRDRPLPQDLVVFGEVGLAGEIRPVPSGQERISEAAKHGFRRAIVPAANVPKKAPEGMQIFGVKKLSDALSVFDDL
UniProt P30015: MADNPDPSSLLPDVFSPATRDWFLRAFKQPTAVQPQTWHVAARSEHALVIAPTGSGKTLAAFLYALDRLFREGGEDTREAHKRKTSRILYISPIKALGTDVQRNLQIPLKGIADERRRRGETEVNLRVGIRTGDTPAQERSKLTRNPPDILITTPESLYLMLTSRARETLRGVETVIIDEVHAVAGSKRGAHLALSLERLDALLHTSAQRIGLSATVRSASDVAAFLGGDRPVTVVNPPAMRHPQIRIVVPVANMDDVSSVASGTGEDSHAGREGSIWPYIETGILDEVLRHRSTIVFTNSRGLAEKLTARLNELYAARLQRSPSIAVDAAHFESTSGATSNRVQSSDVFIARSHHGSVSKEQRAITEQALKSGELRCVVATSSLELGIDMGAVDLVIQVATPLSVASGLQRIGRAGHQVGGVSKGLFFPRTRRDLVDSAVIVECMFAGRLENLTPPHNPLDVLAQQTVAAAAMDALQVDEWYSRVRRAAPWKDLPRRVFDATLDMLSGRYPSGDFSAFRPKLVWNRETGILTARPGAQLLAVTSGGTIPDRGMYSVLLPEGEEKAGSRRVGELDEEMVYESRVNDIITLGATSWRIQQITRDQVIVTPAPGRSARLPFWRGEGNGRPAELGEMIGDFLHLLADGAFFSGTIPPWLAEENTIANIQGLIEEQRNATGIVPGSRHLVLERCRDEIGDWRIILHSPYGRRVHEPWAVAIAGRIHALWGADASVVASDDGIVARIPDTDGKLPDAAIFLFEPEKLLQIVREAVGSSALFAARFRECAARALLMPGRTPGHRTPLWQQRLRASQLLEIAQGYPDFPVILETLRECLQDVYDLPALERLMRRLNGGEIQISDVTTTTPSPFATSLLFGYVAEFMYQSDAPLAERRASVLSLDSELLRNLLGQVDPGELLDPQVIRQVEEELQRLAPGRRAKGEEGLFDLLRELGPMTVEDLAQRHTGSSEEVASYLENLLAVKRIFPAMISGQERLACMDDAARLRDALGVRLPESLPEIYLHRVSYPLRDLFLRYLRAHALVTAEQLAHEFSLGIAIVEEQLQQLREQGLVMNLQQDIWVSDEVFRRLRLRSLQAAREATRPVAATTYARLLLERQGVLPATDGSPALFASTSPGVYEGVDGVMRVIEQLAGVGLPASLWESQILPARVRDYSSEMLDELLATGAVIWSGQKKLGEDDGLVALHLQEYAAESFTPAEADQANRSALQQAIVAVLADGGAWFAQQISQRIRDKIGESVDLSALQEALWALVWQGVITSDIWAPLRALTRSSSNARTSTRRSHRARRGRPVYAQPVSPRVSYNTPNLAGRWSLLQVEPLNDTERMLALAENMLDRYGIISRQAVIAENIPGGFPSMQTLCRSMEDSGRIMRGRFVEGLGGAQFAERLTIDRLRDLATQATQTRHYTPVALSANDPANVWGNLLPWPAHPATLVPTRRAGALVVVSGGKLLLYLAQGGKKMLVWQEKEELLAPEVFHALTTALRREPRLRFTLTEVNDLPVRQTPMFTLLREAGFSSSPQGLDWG
UniProt P31554: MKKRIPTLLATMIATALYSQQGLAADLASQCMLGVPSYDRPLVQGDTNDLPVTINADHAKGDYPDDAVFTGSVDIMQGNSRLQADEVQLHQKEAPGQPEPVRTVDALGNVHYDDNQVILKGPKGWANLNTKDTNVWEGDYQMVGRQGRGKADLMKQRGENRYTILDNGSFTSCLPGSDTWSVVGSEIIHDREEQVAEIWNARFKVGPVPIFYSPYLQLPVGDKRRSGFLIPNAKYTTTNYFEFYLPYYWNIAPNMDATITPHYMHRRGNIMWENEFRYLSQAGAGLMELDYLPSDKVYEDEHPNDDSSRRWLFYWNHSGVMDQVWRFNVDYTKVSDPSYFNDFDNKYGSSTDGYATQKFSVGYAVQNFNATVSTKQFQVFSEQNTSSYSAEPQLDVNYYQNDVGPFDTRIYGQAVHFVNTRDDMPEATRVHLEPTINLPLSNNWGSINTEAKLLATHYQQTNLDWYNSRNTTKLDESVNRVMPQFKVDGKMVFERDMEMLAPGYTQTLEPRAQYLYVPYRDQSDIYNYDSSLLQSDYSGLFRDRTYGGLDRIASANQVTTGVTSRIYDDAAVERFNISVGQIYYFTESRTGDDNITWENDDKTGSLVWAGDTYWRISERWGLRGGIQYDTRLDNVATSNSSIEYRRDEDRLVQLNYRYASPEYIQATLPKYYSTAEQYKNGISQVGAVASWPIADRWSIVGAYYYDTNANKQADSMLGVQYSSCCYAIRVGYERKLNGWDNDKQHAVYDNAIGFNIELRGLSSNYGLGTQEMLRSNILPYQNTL
UniProt P24232: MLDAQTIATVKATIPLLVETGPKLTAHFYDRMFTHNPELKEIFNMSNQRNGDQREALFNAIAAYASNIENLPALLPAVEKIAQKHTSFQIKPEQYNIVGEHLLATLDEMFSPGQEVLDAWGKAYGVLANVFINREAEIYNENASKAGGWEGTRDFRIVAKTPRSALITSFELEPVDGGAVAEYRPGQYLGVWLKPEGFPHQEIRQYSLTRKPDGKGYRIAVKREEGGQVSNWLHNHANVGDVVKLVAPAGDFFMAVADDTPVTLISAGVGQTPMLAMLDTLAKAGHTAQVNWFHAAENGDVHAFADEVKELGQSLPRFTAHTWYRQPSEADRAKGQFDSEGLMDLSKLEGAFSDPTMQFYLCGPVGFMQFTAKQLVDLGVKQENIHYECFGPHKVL
UniProt P31443: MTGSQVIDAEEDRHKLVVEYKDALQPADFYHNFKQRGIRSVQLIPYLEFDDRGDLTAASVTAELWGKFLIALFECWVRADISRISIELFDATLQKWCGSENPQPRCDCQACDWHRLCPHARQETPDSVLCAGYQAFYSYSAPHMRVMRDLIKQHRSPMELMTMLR
UniProt P33595: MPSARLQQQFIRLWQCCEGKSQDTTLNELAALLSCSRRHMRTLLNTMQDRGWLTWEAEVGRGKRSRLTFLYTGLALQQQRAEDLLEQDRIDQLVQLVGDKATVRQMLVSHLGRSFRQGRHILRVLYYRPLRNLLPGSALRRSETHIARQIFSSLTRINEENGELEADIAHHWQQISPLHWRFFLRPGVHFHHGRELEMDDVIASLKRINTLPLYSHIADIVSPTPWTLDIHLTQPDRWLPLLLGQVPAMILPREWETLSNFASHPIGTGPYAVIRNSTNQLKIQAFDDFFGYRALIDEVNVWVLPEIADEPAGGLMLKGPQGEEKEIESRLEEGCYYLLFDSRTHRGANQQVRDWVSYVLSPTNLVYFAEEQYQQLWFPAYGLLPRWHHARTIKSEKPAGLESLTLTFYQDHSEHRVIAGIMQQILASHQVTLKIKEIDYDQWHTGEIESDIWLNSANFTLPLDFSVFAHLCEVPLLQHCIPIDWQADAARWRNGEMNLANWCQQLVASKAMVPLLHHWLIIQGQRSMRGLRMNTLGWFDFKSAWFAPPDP
UniProt P31130: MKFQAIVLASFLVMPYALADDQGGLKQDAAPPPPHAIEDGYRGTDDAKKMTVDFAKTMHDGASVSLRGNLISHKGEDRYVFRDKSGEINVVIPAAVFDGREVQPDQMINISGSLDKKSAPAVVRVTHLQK
UniProt P33225: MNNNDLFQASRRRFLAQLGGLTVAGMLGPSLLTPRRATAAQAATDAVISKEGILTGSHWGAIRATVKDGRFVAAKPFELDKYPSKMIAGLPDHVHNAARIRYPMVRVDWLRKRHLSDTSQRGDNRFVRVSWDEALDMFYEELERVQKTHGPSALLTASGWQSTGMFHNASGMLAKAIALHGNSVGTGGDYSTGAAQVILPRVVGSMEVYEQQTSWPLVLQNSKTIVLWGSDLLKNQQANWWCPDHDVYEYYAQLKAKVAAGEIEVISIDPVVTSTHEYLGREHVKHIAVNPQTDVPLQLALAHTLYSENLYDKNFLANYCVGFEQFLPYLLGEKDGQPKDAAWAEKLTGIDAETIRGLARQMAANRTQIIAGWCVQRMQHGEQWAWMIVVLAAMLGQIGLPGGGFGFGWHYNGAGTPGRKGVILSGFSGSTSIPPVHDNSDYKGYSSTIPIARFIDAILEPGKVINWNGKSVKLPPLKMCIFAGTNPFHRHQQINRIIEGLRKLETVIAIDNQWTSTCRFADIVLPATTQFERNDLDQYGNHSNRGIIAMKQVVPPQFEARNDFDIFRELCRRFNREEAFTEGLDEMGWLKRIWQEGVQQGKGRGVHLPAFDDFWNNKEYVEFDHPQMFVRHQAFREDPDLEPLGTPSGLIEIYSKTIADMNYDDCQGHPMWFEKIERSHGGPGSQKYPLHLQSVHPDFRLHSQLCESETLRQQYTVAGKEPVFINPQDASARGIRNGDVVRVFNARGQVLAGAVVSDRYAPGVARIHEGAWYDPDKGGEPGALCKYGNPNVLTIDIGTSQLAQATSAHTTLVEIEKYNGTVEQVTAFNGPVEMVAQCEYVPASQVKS
UniProt P25728: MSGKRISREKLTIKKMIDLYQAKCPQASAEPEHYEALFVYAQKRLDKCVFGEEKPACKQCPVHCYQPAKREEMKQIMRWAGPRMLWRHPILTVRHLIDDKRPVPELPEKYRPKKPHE
UniProt P32685: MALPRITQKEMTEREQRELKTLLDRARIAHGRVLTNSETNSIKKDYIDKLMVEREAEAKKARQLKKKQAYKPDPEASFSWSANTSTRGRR

Compound: CC1(C)S[C@@H]2[C@H](NC(=O)[C@H](N)c3ccccc3)C(=O)N2[C@H]1C(=O)O [ampicillin]
Assay: log2 fold change of tryptic peptide abundance, ligand vs vehicle (limited proteolysis) (log2 ratio); higher = more trypsin-susceptible (destabilized)
Conditions: ligand concentration: 10 uM; sample: E. coli crude lysate

Question: For “UniProt P31447 (peptide sequence: DYDTGLPTQGVK, peptide start residue: 478)”, which log2 fold change is on record?
Answer: 0.197

Question: For “UniProt P27830 (peptide sequence: VDICDRAELAR, peptide start residue: 58)”, which log2 fold change is on record?
Answer: -1.03

Question: For “UniProt P31665 (peptide sequence: QEVSQEFAQR, peptide start residue: 262)”, which log2 fold change is on record?
Answer: -0.151

Question: For “UniProt P29131 (peptide sequence: AADAPKPTAEKK, peptide start residue: 232)”, which log2 fold change is on record?
Answer: 0.491

Question: With “UniProt P32162 (peptide sequence: DVVDKCSTK, peptide start residue: 3)” as the target, how does the log2 fold change read?
Answer: 0.282

Question: With “UniProt P33371 (peptide sequence: KEYDEATELFQHVR, peptide start residue: 282)” as the target, how does the log2 fold change read?
Answer: 0.939

Question: “UniProt P30958 (peptide sequence: NLAELHIGQPVVHLEHGVGR, peptide start residue: 473)” was tested. Which log2 fold change did it give?
Answer: 0.355

Question: For “UniProt P25534 (peptide sequence: KAPGVTLHCPDR, peptide start residue: 121)”, which log2 fold change is on record?
Answer: -0.628

Question: How did the log2 fold change turn out when “UniProt P24554 (peptide sequence: KAPEGMQIFGVK, peptide start residue: 437)” was run?
Answer: -0.181

Question: “UniProt P25437 (peptide sequence: SQLPGMVEDAMK, peptide start residue: 321)” was tested. Which log2 fold change did it give?
Answer: 0.172

Question: “UniProt P31697 (peptide sequence: TINDYGALTPK, peptide start residue: 225)” was tested. Which log2 fold change did it give?
Answer: 0.0593

Question: How did the log2 fold change turn out when “UniProt P30015 (peptide sequence: DQVIVTPAPGR, peptide start residue: 603)” was run?
Answer: -0.397

Question: “UniProt P31554 (peptide sequence: RGNIMWENEFR, peptide start residue: 267)” was tested. Which log2 fold change did it give?
Answer: -0.233

Question: Which log2 fold change does the source give for “UniProt P24202 (peptide sequence: VITSGQLVYK, peptide start residue: 47)” here?
Answer: 0.111

Question: How did the log2 fold change turn out when “UniProt P24242 (peptide sequence: QAIQYLLDLR, peptide start residue: 108)” was run?
Answer: -0.54

Question: “UniProt P32718 (peptide sequence: ETLVAMTQK, peptide start residue: 257)” was tested. Which log2 fold change did it give?
Answer: -0.277

Question: Which log2 fold change does the source give for “UniProt P26612 (peptide sequence: MGADEKEAIR, peptide start residue: 107)” here?
Answer: -1.42

Question: How did the log2 fold change turn out when “UniProt P31063 (peptide sequence: EGDTLDCR, peptide start residue: 61)” was run?
Answer: -0.0761

Question: Which log2 fold change does the source give for “UniProt P24232 (peptide sequence: QLVDLGVK, peptide start residue: 374)” here?
Answer: 0.316

Question: With “UniProt P27300 (peptide sequence: TDAPVAVSPVR, peptide start residue: 117)” as the target, how does the log2 fold change read?
Answer: 0.0622

Question: How did the log2 fold change turn out when “UniProt P29018 (peptide sequence: DLSPESWR, peptide start residue: 415)” was run?
Answer: -0.146

Question: How did the log2 fold change turn out when “UniProt P31443 (peptide sequence: SPMELMTMLR, peptide start residue: 156)” was run?
Answer: -0.405

Question: With “UniProt P28249 (peptide sequence: HNWQGQAHVEMTDTR, peptide start residue: 446)” as the target, how does the log2 fold change read?
Answer: 0.539

Question: “UniProt P31471 (peptide sequence: VFYPLNAK, peptide start residue: 239)” was tested. Which log2 fold change did it give?
Answer: 0.415

Question: “UniProt P30014 (peptide sequence: AIMVAHNANFDHSFMMAAAER, peptide start residue: 115)” was tested. Which log2 fold change did it give?
Answer: -0.0608

Question: How did the log2 fold change turn out when “UniProt P33595 (peptide sequence: GPQGEEKEIESR, peptide start residue: 319)” was run?
Answer: 0.502

Question: “UniProt P28722 (peptide sequence: VEAGQVQQVR, peptide start residue: 77)” was tested. Which log2 fold change did it give?
Answer: -0.334

Question: With “UniProt P32677 (peptide sequence: SQALFEAIR, peptide start residue: 167)” as the target, how does the log2 fold change read?
Answer: 0.266

Question: With “UniProt P31130 (peptide sequence: DKSGEINVVIPAAVFDGR, peptide start residue: 83)” as the target, how does the log2 fold change read?
Answer: 0.138

Question: For “UniProt P33224 (peptide sequence: HVFGNPLIQQPLMR, peptide start residue: 325)”, which log2 fold change is on record?
Answer: 0.4

Question: With “UniProt P33225 (peptide sequence: GIRNGDVVR, peptide start residue: 734)” as the target, how does the log2 fold change read?
Answer: -0.0801

Question: With “UniProt P28638 (peptide sequence: ALIDYRK, peptide start residue: 158)” as the target, how does the log2 fold change read?
Answer: 0.209

Question: Which log2 fold change does the source give for “UniProt P25728 (peptide sequence: QCPVHCYQPAKR, peptide start residue: 59)” here?
Answer: -0.528

Question: Which log2 fold change does the source give for “UniProt P32685 (peptide sequence: DYIDKLMVER, peptide start residue: 45)” here?
Answer: -0.107
